From PMC3168500 come the findings set out here.

Sequences of proteins named here, by UniProt entry; tags and fusion partners are left off.
UniProt Q9WTL8: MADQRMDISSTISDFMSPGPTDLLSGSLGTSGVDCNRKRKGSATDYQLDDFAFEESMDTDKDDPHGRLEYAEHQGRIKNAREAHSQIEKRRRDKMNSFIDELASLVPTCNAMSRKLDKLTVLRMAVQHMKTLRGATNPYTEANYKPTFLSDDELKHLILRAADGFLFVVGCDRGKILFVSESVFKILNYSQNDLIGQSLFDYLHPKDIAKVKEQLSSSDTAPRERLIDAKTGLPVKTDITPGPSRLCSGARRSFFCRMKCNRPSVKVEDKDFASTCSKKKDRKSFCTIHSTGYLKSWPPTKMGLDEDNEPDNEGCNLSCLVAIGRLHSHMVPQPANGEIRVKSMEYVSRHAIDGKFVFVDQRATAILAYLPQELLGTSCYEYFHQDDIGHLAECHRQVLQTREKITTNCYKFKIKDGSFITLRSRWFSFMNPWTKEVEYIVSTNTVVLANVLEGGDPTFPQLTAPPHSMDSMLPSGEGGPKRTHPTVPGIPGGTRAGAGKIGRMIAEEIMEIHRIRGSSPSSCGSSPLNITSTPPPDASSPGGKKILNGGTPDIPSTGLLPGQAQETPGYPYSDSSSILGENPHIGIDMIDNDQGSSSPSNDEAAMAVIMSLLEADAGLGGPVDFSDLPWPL
UniProt P38532: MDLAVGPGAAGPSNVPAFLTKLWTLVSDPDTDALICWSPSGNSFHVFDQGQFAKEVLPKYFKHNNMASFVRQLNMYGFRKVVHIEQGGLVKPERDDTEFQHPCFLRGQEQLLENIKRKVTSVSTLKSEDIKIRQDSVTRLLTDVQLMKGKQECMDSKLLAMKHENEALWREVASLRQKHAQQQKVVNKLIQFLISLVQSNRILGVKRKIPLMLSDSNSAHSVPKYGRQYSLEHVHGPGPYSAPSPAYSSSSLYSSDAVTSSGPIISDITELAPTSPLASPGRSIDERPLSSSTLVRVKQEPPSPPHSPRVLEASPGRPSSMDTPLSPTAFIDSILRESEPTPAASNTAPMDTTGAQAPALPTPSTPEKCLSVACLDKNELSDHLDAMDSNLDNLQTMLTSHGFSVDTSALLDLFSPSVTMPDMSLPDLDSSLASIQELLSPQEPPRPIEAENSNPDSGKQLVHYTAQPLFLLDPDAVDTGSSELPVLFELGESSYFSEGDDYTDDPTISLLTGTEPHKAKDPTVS

For test [1], the target named is BMAL1 (mouse (endogenous in MEFs)) (UniProt Q9WTL8). The test is described as follows: co-IP; endogenous proteins in lysates of WT MEFs taken before, without and at times (3 and 21 h) after an HS pulse (43°C, 30 min); immunoprecipitation with anti-BMAL1 or anti-HSF1 antibody, immunoblotting for HSF1, BMAL1 and CLOCK. For orientation: Immunoblotting shows a protein as a band on a membrane.

Test [2] has as its target Heat shock factor 1 (mouse (endogenous in MEFs)) (UniProt P38532). Described as above.

These are yes or no findings as the source states them, for the method shown. In cells and extracts the contact can be indirect. Some binding calls cover weakened binding; strength is not graded here.

Regarding “Heat shock factor 1 (from UniProt P38532 1-525)”, the binding result in test [1] was “binds”.

On to BMAL1 (from UniProt Q9WTL8 1-632), for which the binding entry in test [2] is recorded as “binds”.

B1: CLOCK (protein, UniProt O08785 1-855)
chain: MVFTVSCSKMSSIVDRDDSSIFDGLVEEDDKDKAKRVSRNKSEKKRRDQFNVLIKELGSMLPGNARKMDKSTVLQKSIDFLRKHKETTAQSDASEIRQDWKPTFLSNEEFTQLMLEALDGFFLAIMTDGSIIYVSESVTSLLEHLPSDLVDQSIFNFIPEGEHSEVYKILSTHLLESDSLTPEYLKSKNQLEFCCHMLRGTIDPKEPSTYEYVRFIGNFKSLTSVSTSTHNGFEGTIQRTHRPSYEDRVCFVATVRLATPQFIKEMCTVEEPNEEFTSRHSLEWKFLFLDHRAPPIIGYLPFEVLGTSGYDYYHVDDLENLAKCHEHLMQYGKGKSCYYRFLTKGQQWIWLQTHYYITYHQWNSRPEFIVCTHTVVSYAEVRAERRRELGIEESLPETAADKSQDSGSDNRINTVSLKEALERFDHSPTPSASSRSSRKSSHTAVSDPSSTPTKIPTDTSTPPRQHLPAHEKMTQRRSSFSSQSINSQSVGPSLTQPAMSQAANLPIPQGMSQFQFSAQLGAMQHLKDQLEQRTRMIEANIHRQQEELRKIQEQLQMVHGQGLQMFLQQSNPGLNFGSVQLSSGNSNIQQLTPVNMQGQVVPANQVQSGHISTGQHMIQQQTLQSTSTQQSQQSVMSGHSQQTSLPSQTPSTLTAPLYNTMVISQPAAGSMVQIPSSMPQNSTQSATVTTFTQDRQIRFSQGQQLVTKLVTAPVACGAVMVPSTMLMGQVVTAYPTFATQQQQAQTLSVTQQQQQQQQQPPQQQQQQQQSSQEQQLPSVQQPAQAQLGQPPQQFLQTSRLLHGNPSTQLILSAAFPLQQSTFPPSHHQQHQPQQQQQLPRHRTDSLTDPSKVQPQ
With B1, the binding result in test [1] and in test [2] was “binds” in each case.
